# Measurements reported in the supplement of paper PMC6411743.
# ± gives the standard deviation of the averaged measurements. The list shows a part of the results, in another mix than the full data.
# Experiments:
# Assay in all cases: NP40-soluble protein abundance relative to vehicle (solubility fold change) (ratio); higher = more soluble protein in presence of ATP
# RRP15 = target: T1, RRP15 (UniProt Q9Y3B9)
# T1 sequence (whole entry): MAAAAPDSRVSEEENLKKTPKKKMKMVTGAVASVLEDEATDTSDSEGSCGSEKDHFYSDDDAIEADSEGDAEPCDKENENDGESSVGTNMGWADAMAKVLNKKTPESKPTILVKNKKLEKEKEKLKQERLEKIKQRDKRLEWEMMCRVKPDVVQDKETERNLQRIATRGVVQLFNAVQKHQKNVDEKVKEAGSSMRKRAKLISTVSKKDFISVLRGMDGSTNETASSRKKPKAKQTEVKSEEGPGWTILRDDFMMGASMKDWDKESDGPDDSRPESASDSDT
# How it was run: (§1)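 In three independent experiments, Jurkat crude lysate made by Dounce homogenisation was treated for 10 min at room temperature and then 3 min at 37 °C with eight concentrations ranging from 0.1 to 10 mM. It was then solubilised with 0.8% NP40 plus benzonase for 60 min at 4 °C and ultracentrifuged. The supernatant was TMT-labelled for LC-MS/MS, and each value is the fold change against the detergent-processed vehicle for the same replicate, using vsn-normalised intensities.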
# [1] = target: T2, UniProt Q9Y2K1 and related entries
# T2 sequence (whole entry): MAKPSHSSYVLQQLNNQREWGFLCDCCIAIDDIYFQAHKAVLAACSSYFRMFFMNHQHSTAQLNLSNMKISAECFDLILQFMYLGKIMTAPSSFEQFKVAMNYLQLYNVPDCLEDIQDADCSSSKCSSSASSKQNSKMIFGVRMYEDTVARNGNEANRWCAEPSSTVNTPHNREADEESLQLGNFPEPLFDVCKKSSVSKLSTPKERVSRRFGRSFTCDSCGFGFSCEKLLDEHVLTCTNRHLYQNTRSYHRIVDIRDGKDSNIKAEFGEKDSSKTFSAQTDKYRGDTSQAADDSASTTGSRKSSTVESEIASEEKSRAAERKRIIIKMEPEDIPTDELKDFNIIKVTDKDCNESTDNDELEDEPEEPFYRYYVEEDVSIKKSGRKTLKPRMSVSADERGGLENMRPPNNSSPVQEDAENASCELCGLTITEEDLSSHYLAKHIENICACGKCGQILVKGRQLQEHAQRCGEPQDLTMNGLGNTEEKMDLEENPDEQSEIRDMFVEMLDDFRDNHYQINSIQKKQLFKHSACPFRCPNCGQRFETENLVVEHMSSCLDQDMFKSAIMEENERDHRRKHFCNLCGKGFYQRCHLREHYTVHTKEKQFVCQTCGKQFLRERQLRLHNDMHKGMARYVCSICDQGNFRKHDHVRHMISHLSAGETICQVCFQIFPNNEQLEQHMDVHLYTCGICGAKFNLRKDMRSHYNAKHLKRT
# How it was run: as §1
# [2] = target: T3, UniProt Q9Y394 and related entries
# T3 sequence (whole entry): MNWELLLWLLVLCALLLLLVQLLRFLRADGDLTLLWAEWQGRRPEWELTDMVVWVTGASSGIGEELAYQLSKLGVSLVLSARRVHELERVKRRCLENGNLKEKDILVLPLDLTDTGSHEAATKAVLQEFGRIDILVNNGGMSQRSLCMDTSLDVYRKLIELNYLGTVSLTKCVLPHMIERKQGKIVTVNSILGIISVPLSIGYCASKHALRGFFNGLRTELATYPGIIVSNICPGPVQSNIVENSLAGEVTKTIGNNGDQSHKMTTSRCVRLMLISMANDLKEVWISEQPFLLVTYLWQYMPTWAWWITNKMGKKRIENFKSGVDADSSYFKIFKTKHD
# How it was run: as §1
# [3] = target: T4, UniProt Q9Y3Y2 and related entries
# T4 sequence (whole entry): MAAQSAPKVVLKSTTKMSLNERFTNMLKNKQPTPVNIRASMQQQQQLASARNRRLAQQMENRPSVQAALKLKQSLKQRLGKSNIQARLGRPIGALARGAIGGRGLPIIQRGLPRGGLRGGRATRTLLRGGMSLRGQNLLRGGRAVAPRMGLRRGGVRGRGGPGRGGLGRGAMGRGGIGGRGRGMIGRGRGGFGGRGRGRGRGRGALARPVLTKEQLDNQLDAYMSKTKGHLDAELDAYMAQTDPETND
# How it was run: as §1
# [4] = target: T5, UniProt Q9Y4C2 and related entries
# T5 sequence (whole entry): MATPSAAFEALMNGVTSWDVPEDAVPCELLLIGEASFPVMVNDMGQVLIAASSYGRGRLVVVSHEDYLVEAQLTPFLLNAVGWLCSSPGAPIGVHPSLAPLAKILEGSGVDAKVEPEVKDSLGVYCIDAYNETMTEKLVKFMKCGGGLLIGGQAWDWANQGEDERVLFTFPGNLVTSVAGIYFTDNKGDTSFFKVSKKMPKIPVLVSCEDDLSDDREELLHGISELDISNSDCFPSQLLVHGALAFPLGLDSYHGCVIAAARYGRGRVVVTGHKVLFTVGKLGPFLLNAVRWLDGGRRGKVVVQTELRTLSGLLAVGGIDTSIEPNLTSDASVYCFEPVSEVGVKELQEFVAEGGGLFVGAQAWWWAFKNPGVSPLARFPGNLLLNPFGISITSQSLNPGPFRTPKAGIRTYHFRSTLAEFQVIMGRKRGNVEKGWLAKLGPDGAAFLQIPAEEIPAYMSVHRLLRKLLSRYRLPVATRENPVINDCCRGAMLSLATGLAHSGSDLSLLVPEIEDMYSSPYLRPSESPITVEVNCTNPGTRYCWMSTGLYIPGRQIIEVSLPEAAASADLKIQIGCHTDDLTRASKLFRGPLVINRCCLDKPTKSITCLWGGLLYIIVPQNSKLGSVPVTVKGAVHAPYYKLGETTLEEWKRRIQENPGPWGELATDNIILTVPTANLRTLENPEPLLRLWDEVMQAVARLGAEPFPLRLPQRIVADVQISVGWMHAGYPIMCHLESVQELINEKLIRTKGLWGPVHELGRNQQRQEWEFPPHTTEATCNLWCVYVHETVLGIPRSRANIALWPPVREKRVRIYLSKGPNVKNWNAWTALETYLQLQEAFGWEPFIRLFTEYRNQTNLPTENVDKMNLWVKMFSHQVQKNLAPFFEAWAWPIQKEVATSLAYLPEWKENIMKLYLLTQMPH
# How it was run: as §1
# [5] = target: T6, UniProt Q9Y4W2 and related entries
# T6 sequence (whole entry): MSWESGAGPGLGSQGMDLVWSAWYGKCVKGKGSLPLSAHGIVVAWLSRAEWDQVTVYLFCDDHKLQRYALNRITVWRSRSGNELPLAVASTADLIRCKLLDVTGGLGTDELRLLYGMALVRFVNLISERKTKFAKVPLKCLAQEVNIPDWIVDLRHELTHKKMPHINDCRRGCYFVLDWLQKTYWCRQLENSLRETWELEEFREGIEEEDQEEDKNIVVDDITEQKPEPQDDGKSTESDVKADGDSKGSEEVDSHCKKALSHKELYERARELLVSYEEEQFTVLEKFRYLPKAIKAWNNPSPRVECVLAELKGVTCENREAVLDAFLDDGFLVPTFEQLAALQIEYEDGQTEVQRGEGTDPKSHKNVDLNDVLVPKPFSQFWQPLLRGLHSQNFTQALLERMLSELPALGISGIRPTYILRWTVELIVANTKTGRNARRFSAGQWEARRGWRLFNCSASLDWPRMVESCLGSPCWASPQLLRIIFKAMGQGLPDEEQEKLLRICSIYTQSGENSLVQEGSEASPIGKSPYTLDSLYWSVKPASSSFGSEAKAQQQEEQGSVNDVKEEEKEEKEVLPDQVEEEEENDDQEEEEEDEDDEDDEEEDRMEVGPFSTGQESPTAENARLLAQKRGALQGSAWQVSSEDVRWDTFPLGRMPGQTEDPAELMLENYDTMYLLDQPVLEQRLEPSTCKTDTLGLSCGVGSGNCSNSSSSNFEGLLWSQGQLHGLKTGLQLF
# How it was run: as §1
# ZHX2 = target: T7, ZHX2 (UniProt Q9Y6X8)
# T7 sequence (whole entry): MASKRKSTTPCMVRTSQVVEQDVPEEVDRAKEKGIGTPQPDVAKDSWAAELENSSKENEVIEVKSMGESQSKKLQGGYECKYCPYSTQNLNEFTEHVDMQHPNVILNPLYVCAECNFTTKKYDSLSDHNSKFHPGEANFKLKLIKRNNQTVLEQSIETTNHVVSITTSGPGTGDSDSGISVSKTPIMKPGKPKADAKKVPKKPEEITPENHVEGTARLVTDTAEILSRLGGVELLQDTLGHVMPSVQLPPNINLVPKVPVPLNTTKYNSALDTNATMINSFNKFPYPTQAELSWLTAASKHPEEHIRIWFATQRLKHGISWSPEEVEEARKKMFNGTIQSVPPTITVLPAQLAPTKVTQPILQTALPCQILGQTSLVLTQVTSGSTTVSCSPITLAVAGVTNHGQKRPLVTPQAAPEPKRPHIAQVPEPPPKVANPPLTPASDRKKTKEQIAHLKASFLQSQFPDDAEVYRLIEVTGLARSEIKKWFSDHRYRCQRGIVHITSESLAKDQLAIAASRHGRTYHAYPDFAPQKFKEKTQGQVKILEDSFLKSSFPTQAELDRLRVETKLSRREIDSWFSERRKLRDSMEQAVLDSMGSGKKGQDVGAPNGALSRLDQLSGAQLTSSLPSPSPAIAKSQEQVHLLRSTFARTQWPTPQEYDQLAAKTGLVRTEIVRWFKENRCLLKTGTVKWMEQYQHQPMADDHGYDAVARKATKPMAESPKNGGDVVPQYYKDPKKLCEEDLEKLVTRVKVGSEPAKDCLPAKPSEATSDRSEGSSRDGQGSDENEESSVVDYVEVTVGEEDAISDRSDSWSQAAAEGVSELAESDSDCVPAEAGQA
# How it was run: as §1
smiles,measurement,setting,value
Nc1ncnc2c1ncn2[C@@H]1O[C@H](COP(=O)(O)OP(=O)(O)OP(=O)(O)O)[C@@H](O)[C@H]1O [adenosine triphosphate],NP40-soluble protein abundance,RRP15; concentration: 6mM,1.2 ± 0.087
same,NP40-soluble protein abundance,RRP15; concentration: 8mM,1.24 ± 0.11
same,NP40-soluble protein abundance,RRP15; concentration: 10mM,1.26 ± 0.088
same,NP40-soluble protein abundance,[1]; concentration: 1mM,1.07 ± 0.046
same,NP40-soluble protein abundance,[1]; concentration: 2mM,1.13 ± 0.051
same,NP40-soluble protein abundance,[1]; concentration: 4mM,1.25 ± 0.078
same,NP40-soluble protein abundance,[1]; concentration: 6mM,1.27 ± 0.093
same,NP40-soluble protein abundance,[1]; concentration: 8mM,1.17 ± 0.09
same,NP40-soluble protein abundance,[1]; concentration: 10mM,1.23 ± 0.039
same,NP40-soluble protein abundance,[2]; concentration: 1mM,1.012 ± 0.0016
same,NP40-soluble protein abundance,[2]; concentration: 2mM,1.02 ± 0.011
same,NP40-soluble protein abundance,[2]; concentration: 4mM,0.983 ± 0.021
same,NP40-soluble protein abundance,[2]; concentration: 6mM,0.947 ± 0.046
same,NP40-soluble protein abundance,[2]; concentration: 8mM,0.994 ± 0.02
same,NP40-soluble protein abundance,[2]; concentration: 10mM,0.989 ± 0.015
same,NP40-soluble protein abundance,[3]; concentration: 1mM,1.06 ± 0.1
same,NP40-soluble protein abundance,[3]; concentration: 2mM,1.09 ± 0.062
same,NP40-soluble protein abundance,[3]; concentration: 4mM,1.23 ± 0.074
same,NP40-soluble protein abundance,[3]; concentration: 6mM,1.38 ± 0.18
same,NP40-soluble protein abundance,[3]; concentration: 8mM,1.39 ± 0.039
same,NP40-soluble protein abundance,[3]; concentration: 10mM,1.62 ± 0.16
same,NP40-soluble protein abundance,[4]; concentration: 1mM,1.1 ± 0.054
same,NP40-soluble protein abundance,[4]; concentration: 2mM,0.969 ± 0.033
same,NP40-soluble protein abundance,[4]; concentration: 4mM,1.03 ± 0.07
same,NP40-soluble protein abundance,[4]; concentration: 6mM,0.9585 ± 0.0092
same,NP40-soluble protein abundance,[4]; concentration: 8mM,0.99 ± 0.052
same,NP40-soluble protein abundance,[4]; concentration: 10mM,0.971 ± 0.025
same,NP40-soluble protein abundance,[5]; concentration: 1mM,0.924 ± 0.087
same,NP40-soluble protein abundance,[5]; concentration: 2mM,0.908 ± 0.027
same,NP40-soluble protein abundance,[5]; concentration: 4mM,0.898 ± 0.04
same,NP40-soluble protein abundance,[5]; concentration: 6mM,0.917 ± 0.1
same,NP40-soluble protein abundance,[5]; concentration: 8mM,0.91 ± 0.051
same,NP40-soluble protein abundance,[5]; concentration: 10mM,0.951 ± 0.057
same,NP40-soluble protein abundance,ZHX2; concentration: 1mM,0.961 ± 0.083
same,NP40-soluble protein abundance,ZHX2; concentration: 2mM,0.96 ± 0.069
same,NP40-soluble protein abundance,ZHX2; concentration: 4mM,0.984 ± 0.047
same,NP40-soluble protein abundance,ZHX2; concentration: 6mM,1.02 ± 0.049
same,NP40-soluble protein abundance,ZHX2; concentration: 8mM,0.948 ± 0.015
same,NP40-soluble protein abundance,ZHX2; concentration: 10mM,0.962 ± 0.019

# Some of the entries above in a different format.
smiles | measurement | setting | value
Nc1ncnc2c1ncn2[C@@H]1O[C@H](COP(=O)(O)OP(=O)(O)OP(=O)(O)O)[C@@H](O)[C@H]1O [adenosine triphosphate] | NP40-soluble protein abundance | [3]; concentration: 1mM | 1.06 ± 0.1
same | NP40-soluble protein abundance | ZHX2; concentration: 4mM | 0.984 ± 0.047
